Experimental data taken from publication PMC6797804, “Histone H3K23-specific acetylation by MORF is coupled to H3K14 acylation” (Nature Communications, 2019).

By UniProt entry, the sequences of proteins in these tests, tags left out. Where a name states a change or a piece, a line headed by the entry shows the natural chain unless it says otherwise.
UniProt Q8WYB5: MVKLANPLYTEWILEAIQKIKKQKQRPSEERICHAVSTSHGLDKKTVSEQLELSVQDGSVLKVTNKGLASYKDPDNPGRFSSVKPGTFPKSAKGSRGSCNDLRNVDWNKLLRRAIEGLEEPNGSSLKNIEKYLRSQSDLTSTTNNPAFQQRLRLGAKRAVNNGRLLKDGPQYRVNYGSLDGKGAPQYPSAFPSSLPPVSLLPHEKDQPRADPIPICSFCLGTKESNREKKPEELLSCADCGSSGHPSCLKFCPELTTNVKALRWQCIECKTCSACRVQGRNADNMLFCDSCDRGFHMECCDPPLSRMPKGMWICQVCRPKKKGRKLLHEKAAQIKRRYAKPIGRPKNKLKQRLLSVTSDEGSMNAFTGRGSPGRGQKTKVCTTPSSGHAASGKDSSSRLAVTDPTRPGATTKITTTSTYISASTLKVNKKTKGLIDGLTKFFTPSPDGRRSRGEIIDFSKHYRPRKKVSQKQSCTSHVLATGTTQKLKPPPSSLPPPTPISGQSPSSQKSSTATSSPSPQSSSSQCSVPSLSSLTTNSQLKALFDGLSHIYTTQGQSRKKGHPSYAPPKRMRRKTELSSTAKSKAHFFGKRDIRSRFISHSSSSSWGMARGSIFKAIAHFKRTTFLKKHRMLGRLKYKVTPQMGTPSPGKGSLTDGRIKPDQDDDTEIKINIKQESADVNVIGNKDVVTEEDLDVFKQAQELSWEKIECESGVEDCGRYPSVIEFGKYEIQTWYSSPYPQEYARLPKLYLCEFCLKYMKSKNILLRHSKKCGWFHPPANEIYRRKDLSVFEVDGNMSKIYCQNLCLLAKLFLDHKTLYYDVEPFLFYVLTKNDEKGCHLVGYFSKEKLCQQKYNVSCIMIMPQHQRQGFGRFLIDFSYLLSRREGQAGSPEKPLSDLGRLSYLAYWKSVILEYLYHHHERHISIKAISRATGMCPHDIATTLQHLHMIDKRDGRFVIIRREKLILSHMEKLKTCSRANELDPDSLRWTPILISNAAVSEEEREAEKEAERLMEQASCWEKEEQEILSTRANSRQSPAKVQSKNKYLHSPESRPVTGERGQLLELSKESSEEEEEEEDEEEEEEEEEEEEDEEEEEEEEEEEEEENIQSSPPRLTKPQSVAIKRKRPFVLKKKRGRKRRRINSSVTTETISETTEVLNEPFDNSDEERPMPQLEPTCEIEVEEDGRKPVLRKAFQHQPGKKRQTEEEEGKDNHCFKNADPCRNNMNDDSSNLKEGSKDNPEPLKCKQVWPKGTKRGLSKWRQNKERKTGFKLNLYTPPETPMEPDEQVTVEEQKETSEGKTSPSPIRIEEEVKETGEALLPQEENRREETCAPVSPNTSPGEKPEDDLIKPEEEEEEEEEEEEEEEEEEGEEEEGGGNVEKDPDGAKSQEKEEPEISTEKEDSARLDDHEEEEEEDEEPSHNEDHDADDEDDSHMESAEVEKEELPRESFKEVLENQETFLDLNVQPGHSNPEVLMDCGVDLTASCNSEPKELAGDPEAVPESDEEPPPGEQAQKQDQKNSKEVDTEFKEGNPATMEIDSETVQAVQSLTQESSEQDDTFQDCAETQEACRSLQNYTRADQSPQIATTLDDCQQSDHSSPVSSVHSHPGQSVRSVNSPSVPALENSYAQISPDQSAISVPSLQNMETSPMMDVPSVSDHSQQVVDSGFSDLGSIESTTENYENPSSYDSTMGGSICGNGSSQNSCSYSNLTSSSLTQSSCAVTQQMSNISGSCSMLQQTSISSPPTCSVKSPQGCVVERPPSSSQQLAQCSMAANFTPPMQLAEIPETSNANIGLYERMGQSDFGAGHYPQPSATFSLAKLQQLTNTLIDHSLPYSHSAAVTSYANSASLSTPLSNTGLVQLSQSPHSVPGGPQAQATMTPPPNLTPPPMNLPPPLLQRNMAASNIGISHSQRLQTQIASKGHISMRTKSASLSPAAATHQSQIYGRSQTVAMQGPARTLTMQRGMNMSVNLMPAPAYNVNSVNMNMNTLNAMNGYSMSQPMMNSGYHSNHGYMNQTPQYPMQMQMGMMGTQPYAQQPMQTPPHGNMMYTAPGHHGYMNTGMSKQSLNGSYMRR
UniProt Q8WYH8: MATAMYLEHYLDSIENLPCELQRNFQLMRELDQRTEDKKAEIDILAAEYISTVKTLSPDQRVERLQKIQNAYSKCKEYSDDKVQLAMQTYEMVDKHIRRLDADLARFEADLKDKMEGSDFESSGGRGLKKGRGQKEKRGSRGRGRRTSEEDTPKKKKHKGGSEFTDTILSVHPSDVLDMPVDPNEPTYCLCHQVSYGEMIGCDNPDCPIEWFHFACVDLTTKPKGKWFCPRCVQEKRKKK
UniProt P55201: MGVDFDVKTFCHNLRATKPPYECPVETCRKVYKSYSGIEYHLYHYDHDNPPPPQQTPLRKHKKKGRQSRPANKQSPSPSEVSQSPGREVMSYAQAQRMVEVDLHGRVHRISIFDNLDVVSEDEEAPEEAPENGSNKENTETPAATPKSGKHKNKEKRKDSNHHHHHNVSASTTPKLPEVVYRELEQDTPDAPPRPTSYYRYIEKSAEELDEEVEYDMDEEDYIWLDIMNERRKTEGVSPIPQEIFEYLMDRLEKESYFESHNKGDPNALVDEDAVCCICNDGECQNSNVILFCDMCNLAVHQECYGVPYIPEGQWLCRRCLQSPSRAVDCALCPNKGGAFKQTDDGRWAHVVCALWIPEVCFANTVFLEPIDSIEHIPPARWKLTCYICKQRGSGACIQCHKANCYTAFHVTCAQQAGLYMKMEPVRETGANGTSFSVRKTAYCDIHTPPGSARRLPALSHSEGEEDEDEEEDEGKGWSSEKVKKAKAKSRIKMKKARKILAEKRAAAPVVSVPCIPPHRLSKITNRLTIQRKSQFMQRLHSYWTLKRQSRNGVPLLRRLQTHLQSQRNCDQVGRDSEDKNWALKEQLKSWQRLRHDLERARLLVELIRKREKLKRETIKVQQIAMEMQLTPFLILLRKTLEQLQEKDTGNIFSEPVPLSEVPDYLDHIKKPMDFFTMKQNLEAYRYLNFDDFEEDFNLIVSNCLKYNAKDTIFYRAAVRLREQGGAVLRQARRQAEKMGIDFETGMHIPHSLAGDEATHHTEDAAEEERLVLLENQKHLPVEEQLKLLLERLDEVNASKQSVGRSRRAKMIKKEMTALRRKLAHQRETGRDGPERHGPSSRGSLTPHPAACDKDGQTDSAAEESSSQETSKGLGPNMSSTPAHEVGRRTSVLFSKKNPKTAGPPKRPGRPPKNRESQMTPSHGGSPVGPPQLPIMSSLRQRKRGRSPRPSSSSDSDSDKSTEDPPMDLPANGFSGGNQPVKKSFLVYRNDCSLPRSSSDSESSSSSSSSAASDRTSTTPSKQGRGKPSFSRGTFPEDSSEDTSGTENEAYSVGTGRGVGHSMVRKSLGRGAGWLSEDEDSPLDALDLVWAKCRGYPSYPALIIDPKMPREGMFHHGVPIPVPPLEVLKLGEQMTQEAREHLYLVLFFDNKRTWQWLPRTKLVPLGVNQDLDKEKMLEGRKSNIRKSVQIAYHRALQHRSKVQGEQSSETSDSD

Target: FLAG-MORFN (residues 1–716 of MORF) (human) (UniProt Q8WYB5)
Assay: co-IP; FLAG-MORFN co-transfected with HA-BRPF1, HA-MEAF6 and HA-ING5 in 293T cells; lysis at 450 mM NaCl, reduced to 225 mM; anti-FLAG M2 beads 2 h at 4 °C, elution with 3× FLAG peptide

Substance: HA-ING5 (from UniProt Q8WYH8 1-240)
- binding: binds

Substance: HA-BRPF1 (from UniProt P55201 1-1214)
- binding: binds

These are yes or no findings as the source states them, for the method shown. In cells and extracts the contact can be indirect. Binding calls can cover weak binding; strength is not graded here.
